Test results taken from article doi:10.1101/2025.10.31.685813.

Amino acid sequences for entries named in this document (tags omitted).
UniProt Q12840: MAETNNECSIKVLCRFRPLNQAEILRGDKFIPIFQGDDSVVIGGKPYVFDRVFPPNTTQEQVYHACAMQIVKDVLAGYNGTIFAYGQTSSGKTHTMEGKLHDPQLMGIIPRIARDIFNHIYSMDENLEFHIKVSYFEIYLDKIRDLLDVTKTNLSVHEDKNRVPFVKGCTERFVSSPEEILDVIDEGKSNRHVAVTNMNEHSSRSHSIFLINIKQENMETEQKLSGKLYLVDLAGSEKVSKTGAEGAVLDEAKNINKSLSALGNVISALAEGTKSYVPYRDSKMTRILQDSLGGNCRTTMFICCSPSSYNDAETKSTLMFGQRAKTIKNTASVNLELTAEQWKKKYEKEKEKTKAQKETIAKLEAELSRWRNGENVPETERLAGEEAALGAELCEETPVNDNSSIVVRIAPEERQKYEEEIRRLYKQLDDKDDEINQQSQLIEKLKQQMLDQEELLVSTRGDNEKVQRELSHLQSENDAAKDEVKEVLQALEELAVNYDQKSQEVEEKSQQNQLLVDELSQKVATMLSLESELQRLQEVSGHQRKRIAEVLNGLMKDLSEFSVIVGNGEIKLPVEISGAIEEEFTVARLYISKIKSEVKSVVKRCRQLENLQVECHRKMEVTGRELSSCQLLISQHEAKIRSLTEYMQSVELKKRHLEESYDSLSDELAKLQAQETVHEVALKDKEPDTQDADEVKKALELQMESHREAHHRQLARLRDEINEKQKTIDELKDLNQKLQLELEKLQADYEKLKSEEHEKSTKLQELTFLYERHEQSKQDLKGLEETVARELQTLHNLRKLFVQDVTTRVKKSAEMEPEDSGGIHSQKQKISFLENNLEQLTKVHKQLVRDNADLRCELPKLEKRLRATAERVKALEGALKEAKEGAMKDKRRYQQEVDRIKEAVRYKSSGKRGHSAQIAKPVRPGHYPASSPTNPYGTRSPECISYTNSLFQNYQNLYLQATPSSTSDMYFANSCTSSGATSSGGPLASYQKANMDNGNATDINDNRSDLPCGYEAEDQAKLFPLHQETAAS
UniProt Q13283: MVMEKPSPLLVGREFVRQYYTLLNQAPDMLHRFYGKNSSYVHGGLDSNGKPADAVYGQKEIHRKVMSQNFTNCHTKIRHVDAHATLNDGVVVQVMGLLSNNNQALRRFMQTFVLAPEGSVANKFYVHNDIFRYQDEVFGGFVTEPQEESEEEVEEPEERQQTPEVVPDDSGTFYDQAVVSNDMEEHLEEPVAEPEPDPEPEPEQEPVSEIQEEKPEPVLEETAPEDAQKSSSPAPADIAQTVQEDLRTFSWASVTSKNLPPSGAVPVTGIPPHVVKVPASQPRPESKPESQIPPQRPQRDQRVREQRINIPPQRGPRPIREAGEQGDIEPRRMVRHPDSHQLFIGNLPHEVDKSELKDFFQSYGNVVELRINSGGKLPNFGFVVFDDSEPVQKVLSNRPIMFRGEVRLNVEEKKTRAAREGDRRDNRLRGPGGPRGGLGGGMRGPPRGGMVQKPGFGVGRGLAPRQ
UniProt Q9UPQ9: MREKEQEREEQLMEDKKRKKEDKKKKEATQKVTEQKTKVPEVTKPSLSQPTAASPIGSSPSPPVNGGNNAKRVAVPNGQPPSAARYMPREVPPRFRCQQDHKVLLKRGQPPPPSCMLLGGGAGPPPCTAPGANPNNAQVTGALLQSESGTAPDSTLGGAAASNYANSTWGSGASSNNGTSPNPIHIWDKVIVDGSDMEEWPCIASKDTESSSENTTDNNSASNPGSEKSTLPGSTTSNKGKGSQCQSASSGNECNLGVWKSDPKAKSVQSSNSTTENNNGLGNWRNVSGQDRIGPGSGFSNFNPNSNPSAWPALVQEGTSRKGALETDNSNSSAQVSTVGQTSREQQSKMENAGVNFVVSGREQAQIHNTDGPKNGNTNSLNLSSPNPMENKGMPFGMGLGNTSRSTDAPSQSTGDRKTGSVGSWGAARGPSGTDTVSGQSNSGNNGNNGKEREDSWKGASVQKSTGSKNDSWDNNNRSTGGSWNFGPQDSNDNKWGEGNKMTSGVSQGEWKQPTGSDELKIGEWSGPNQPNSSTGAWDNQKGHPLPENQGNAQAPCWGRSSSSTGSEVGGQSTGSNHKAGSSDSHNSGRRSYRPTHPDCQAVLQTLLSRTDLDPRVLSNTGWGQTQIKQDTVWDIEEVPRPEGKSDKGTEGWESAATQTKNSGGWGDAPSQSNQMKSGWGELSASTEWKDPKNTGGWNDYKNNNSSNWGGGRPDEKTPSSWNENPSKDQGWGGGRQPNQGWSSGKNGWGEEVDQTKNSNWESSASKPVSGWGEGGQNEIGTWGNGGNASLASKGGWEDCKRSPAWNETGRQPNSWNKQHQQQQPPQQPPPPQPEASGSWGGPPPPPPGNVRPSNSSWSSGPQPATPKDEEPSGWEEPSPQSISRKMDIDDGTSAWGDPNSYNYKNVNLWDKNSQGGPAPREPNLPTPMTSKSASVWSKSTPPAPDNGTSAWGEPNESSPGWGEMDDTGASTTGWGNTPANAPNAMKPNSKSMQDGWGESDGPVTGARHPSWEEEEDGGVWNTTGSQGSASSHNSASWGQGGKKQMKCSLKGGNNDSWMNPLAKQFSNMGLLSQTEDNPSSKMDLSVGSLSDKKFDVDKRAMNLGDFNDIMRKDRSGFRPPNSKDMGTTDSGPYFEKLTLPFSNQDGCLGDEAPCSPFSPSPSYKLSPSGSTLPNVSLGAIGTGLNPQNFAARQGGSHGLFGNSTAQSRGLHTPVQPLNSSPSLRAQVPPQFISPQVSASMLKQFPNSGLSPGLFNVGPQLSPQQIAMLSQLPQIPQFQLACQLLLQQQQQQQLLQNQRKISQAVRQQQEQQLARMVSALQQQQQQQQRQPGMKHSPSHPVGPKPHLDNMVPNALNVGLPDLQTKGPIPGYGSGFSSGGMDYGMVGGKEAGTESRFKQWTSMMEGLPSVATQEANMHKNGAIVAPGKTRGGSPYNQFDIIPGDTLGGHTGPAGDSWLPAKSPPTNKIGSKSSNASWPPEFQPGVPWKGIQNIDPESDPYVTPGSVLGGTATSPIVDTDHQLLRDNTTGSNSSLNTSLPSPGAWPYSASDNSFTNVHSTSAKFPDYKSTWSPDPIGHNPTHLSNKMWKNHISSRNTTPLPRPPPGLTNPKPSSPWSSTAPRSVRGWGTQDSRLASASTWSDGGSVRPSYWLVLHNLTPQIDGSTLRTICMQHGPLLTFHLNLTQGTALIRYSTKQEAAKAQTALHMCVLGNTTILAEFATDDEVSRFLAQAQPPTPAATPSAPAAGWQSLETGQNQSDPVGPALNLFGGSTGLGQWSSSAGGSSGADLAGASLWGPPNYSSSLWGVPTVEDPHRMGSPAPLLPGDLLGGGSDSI
UniProt Q07866: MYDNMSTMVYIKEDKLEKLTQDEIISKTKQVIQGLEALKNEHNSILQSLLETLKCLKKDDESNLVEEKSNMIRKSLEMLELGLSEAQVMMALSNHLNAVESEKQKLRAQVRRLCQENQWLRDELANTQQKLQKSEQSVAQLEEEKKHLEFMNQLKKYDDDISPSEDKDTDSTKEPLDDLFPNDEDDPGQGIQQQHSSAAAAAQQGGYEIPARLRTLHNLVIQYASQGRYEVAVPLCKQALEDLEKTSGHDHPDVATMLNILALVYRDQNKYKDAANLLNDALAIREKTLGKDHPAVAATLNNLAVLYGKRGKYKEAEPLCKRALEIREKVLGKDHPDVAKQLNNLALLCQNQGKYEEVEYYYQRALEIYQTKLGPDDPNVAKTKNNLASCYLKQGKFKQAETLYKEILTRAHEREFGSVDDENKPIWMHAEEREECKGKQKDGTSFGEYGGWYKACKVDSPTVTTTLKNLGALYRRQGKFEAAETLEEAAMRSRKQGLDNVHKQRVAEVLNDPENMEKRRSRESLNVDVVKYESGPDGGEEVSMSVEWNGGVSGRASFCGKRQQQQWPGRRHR
UniProt Q13242: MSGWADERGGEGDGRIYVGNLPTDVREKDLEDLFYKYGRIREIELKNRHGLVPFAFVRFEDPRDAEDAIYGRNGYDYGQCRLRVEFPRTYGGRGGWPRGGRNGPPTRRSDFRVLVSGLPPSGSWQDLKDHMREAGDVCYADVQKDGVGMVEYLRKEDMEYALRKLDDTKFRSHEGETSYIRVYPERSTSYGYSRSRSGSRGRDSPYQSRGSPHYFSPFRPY
UniProt O15372: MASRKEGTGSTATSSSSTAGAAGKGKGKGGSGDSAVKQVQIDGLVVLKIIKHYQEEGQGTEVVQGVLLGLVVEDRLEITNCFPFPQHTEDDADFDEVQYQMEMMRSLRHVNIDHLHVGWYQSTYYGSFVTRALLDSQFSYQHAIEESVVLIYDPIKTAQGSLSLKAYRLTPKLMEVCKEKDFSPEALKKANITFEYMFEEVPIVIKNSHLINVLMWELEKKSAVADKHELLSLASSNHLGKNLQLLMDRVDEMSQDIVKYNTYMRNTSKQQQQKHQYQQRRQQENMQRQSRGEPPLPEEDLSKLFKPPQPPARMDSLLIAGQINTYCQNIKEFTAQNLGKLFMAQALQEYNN
UniProt Q8NDV7: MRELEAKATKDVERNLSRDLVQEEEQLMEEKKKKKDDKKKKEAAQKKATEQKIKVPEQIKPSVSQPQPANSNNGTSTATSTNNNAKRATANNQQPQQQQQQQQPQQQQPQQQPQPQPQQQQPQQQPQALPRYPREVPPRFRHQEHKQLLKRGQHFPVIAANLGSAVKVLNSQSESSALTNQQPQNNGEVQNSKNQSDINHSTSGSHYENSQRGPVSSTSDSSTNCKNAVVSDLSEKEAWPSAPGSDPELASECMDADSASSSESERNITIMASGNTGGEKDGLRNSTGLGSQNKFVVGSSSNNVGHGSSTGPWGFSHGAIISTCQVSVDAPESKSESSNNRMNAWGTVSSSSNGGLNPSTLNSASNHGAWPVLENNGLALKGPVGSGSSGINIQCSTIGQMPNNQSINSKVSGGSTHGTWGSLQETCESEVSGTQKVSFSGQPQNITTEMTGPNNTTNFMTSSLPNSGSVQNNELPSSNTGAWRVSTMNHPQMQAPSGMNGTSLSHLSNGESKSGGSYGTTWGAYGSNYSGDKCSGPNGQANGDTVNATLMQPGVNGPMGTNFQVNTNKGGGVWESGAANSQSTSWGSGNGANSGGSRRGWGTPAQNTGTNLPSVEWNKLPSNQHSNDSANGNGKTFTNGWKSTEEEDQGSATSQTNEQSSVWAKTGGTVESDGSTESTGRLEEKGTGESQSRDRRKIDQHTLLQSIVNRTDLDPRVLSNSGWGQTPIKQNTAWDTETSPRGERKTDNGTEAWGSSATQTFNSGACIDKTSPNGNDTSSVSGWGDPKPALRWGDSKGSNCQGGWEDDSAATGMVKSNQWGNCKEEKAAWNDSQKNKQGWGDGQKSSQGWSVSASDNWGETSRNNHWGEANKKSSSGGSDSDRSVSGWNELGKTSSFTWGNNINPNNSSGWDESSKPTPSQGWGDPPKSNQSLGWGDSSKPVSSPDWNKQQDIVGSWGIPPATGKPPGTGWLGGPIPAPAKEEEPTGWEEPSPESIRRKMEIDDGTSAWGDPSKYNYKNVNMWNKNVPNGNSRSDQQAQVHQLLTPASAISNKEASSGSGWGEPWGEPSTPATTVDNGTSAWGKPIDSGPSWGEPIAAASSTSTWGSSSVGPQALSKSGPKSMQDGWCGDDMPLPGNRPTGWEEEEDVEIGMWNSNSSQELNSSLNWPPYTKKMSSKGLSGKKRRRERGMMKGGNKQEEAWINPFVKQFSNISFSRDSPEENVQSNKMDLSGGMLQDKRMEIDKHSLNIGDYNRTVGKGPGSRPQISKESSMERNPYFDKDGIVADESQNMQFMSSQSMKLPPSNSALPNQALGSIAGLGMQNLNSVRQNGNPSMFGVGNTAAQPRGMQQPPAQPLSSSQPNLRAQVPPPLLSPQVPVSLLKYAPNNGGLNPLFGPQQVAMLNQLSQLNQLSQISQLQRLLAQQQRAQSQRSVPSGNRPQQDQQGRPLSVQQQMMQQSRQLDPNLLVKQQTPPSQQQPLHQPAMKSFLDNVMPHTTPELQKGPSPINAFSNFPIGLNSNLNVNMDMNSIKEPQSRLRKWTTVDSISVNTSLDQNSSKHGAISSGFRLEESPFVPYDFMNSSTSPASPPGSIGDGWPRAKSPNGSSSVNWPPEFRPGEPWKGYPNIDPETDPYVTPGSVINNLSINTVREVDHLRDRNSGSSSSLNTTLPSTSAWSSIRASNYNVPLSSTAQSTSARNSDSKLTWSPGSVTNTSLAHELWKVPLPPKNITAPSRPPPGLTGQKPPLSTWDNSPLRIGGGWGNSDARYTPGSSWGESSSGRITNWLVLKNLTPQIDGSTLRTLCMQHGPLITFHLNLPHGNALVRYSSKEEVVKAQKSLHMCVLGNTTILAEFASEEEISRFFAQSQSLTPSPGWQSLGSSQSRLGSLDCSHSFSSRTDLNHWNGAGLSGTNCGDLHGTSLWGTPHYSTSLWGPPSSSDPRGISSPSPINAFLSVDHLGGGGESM

B1: PDAP1 (protein, UniProt Q13442 1-181)
chain: MPKGGRKGGHKGRARQYTSPEEIDAQLQAEKQKAREEEEQKEGGDGAAGDPKKEKKSLDSDESEDEEDDYQQKRKGVEGLIDIENPNRVAQTTKKVTQLDLDGPKELSRREREEIEKQKAKERYMKMHLAGKTEQAKADLARLAIIRKQREEAARKKEEERKAKDDATLSGKRMQSLSLNK
B2: GIGYF2 (protein, UniProt Q6Y7W6 1-1299)
chain: MAAETQTLNFGPEWLRALSSGGSITSPPLSPALPKYKLADYRYGREEMLALFLKDNKIPSDLLDKEFLPILQEEPLPPLALVPFTEEEQRNFSMSVNSAAVLRLTGRGGGGTVVGAPRGRSSSRGRGRGRGECGFYQRSFDEVEGVFGRGGGREMHRSQSWEERGDRRFEKPGRKDVGRPNFEEGGPTSVGRKHEFIRSESENWRIFREEQNGEDEDGGWRLAGSRRDGERWRPHSPDGPRSAGWREHMERRRRFEFDFRDRDDERGYRRVRSGSGSIDDDRDSLPEWCLEDAEEEMGTFDSSGAFLSLKKVQKEPIPEEQEMDFRPVDEGEECSDSEGSHNEEAKEPDKTNKKEGEKTDRVGVEASEETPQTSSSSARPGTPSDHQSQEASQFERKDEPKTEQTEKAEEETRMENSLPAKVPSRGDEMVADVQQPLSQIPSDTASPLLILPPPVPNPSPTLRPVETPVVGAPGMGSVSTEPDDEEGLKHLEQQAEKMVAYLQDSALDDERLASKLQEHRAKGVSIPLMHEAMQKWYYKDPQGEIQGPFNNQEMAEWFQAGYFTMSLLVKRACDESFQPLGDIMKMWGRVPFSPGPAPPPHMGELDQERLTRQQELTALYQMQHLQYQQFLIQQQYAQVLAQQQKAALSSQQQQQLALLLQQFQTLKMRISDQNIIPSVTRSVSVPDTGSIWELQPTASQPTVWEGGSVWDLPLDTTTPGPALEQLQQLEKAKAAKLEQERREAEMRAKREEEERKRQEELRRQQEEILRRQQEEERKRREEEELARRKQEEALRRQREQEIALRRQREEEERQQQEEALRRLEERRREEEERRKQEELLRKQEEEAAKWAREEEEAQRRLEENRLRMEEEAARLRHEEEERKRKELEVQRQKELMRQRQQQQEALRRLQQQQQQQQLAQMKLPSSSTWGQQSNTTACQSQATLSLAEIQKLEEERERQLREEQRRQQRELMKALQQQQQQQQQKLSGWGNVSKPSGTTKSLLEIQQEEARQMQKQQQQQQQHQQPNRARNNTHSNLHTSIGNSVWGSINTGPPNQWASDLVSSIWSNADTKNSNMGFWDDAVKEVGPRNSTNKNKNNASLSKSVGVSNRQNKKVEEEEKLLKLFQGVNKAQDGFTQWCEQMLHALNTANNLDVPTFVSFLKEVESPYEVHDYIRAYLGDTSEAKEFAKQFLERRAKQKANQQRQQQQLPQQQQQQPPQQPPQQPQQQDSVWGMNHSTLHSVFQTNQSNNQQSNFEAVQSGKKKKKQKMVRADPSLLGFSVNASSERLNMGEIETLDDY
B3: PATL1 (protein, UniProt Q86TB9 1-770)
chain: MFRYESLEDCPLDEDEDAFQGLGEEDEEIDQFNDDTFGSGAVDDDWQEAHERLAELEEKLPVAVNEQTGNGERDEMDLLGDHEENLAERLSKMVIENELEDPAIMRAVQTRPVLQPQPGSLNSSIWDGSEVLRRIRGPLLAQEMPTVSVLEYALPQRPPQGPEDDRDLSERALPRRSTSPIIGSPPVRAVPIGTPPKQMAVPSFTQQILCPKPVHVRPPMPPRYPAPYGERMSPNQLCSVPNSSLLGHPFPPSVPPVLSPLQRAQLLGGAQLQPGRMSPSQFARVPGFVGSPLAAMNPKLLQGRVGQMLPPAPGFRAFFSAPPSATPPPQQHPPGPGPHLQNLRSQAPMFRPDTTHLHPQHRRLLHQRQQQNRSQHRNLNGAGDRGSHRSSHQDHLRKDPYANLMLQREKDWVSKIQMMQLQSTDPYLDDFYYQNYFEKLEKLSAAEEIQGDGPKKERTKLITPQVAKLEHAYKPVQFEGSLGKLTVSSVNNPRKMIDAVVTSRSEDDETKEKQVRDKRRKTLVIIEKTYSLLLDVEDYERRYLLSLEEERPALMDDRKHKICSMYDNLRGKLPGQERPSDDHFVQIMCIRKGKRMVARILPFLSTEQAADILMTTARNLPFLIKKDAQDEVLPCLLSPFSLLLYHLPSVSITSLLRQLMNLPQSAATPALSNPHLTAVLQNKFGLSLLLILLSRGEDLQSSDPATESTQNNQWTEVMFMATRELLRIPQAALAKPISIPTNLVSLFSRYVDRQKLNLLETKLQLVQGIR
B4: TIA1 (protein, UniProt P31483 1-386)
chain: MEDEMPKTLYVGNLSRDVTEALILQLFSQIGPCKNCKMIMDTAGNDPYCFVEFHEHRHAAAALAAMNGRKIMGKEVKVNWATTPSSQKKDTSSSTVVSTQRSQDHFHVFVGDLSPEITTEDIKAAFAPFGRISDARVVKDMATGKSKGYGFVSFFNKWDAENAIQQMGGQWLGGRQIRTNWATRKPPAPKSTYESNTKQLSYDEVVNQSSPSNCTVYCGGVTSGLTEQLMRQTFSPFGQIMEIRVFPDKGYSFVRFNSHESAAHAIVSVNGTTIEGHVVKCYWGKETLDMINPVQQQNQIGYPQPYGQWGQWYGNAQQIGQYMPNGWQVPAYGMYGQAWNQQGFNQTQSSAPWMGPNYGVQPPQGQNGSMLPNQPSGYRVAGYETQ
B5: DCP1B (protein, UniProt Q8IZD4 1-617)
chain: MAAVAAGGLVGKGRDISLAALQRHDPYINRIVDVASQVALYTFGHRANEWEKTDVEGTLFVYTRSASPKHGFTIMNRLSMENRTEPITKDLDFQLQDPFLLYRNARLSIYGIWFYDKEECQRIAELMKNLTQYEQLKAHQGTGAGISPVILNSGEGKEVDILRMLIKAKDEYTKCKTCSEPKKITSSSAIYDNPNLIKPIPVKPSENQQQRIPQPNQTLDPEPQHLSLTALFGKQDKATCQETVEPPQTLHQQQQQQQQQQEKLPIRQGVVRSLSYEEPRRHSPPIEKQLCPAIQKLMVRSADLHPLSELPENRPCENGSTHSAGEFFTGPVQPGSPHNIGTSRGVQNASRTQNLFEKLQSTPGAANKCDPSTPAPASSAALNRSRAPTSVTPVAPGKGLAQPPQAYFNGSLPPQTVGHQAHGREQSTLPRQTLPISGSQTGSSGVISPQELLKKLQIVQQEQQLHASNRPALAAKFPVLAQSSGTGKPLESWINKTPNTEQQTPLFQVISPQRIPATAAPSLLMSPMVFAQPTSVPPKERESGLLPVGGQEPPAAATSLLLPIQSPEPSVITSSPLTKLQLQEALLYLIQNDDNFLNIIYEAYLFSMTQAAMKKTM

Each molecule was assayed against KIF5A-TurboID (human) (UniProt Q12840) (assay: proximity labelling).

Row | Molecule | binding
1 | EIF3J (from UniProt O75822 1-258) | binds
2 | GIGYF1 (from UniProt O75420 1-1035) | binds
3 | DDX3Y (from UniProt O15523 1-660) | binds
4 | G3BP1 (from UniProt Q13283 1-466) | binds
5 | TNRC6B (from UniProt Q9UPQ9 1-1833) | binds
6 | EIF4H (from UniProt Q15056 1-248) | binds
7 | KLC4 (from UniProt Q9NSK0 1-619) | binds
8 | KLC1 (from UniProt Q07866 1-573) | binds
9 | EIF3G (from UniProt O75821 1-320) | binds
10 | SRSF9 (from UniProt Q13242 1-221) | binds
11 | TNRC6C (from UniProt Q9HCJ0 1-1936) | binds
12 | EIF3H (from UniProt O15372 1-352) | binds
13 | LARP4B (from UniProt Q92615 1-738) | binds
14 | TNRC6A (from UniProt Q8NDV7 1-1962) | binds
15 | KLC2 (from UniProt Q9H0B6 1-622) | binds
16 | B1 | binds
17 | B2 | binds
18 | B3 | binds
19 | B4 | binds
20 | B5 | binds

These are yes or no findings as the source states them, for the method shown. In cells and extracts the contact can be indirect. Here binding means that the protein was enriched with, or labelled near, the bait; the list need not be complete.
